Values quoted from earlier work, collected in US8530500B2, “Stable pharmaceutical omeprazole formulation for oral administration” (Vetegen, LLC, priority 2009, dated 2013).
For at least one compound, name, drawing or mass did not settle the structure.

Details: pH below about 4

Question: With `COc1ccc2[nH]c([S+]([O-])Cc3ncc(C)c(OC)c3C)nc2c1` (stereo not shown) [omeprazole] as the compound, how does the “decomposition at pH levels below about 4” value read?
Answer: decomposes rapidly
